Measured values as given in patent US20160046728A1.
These are yes or no findings as the source states them, for the method shown. Some results given as binding are weak or reduced against the parent protein; the word gives no strength.

The chains behind the UniProt entries cited, without tags or fusion partners. Where a name states a change or a piece, a line headed by the entry shows the natural chain unless it says otherwise. Residues count along the entry.
UniProt P00747, residues 97-810: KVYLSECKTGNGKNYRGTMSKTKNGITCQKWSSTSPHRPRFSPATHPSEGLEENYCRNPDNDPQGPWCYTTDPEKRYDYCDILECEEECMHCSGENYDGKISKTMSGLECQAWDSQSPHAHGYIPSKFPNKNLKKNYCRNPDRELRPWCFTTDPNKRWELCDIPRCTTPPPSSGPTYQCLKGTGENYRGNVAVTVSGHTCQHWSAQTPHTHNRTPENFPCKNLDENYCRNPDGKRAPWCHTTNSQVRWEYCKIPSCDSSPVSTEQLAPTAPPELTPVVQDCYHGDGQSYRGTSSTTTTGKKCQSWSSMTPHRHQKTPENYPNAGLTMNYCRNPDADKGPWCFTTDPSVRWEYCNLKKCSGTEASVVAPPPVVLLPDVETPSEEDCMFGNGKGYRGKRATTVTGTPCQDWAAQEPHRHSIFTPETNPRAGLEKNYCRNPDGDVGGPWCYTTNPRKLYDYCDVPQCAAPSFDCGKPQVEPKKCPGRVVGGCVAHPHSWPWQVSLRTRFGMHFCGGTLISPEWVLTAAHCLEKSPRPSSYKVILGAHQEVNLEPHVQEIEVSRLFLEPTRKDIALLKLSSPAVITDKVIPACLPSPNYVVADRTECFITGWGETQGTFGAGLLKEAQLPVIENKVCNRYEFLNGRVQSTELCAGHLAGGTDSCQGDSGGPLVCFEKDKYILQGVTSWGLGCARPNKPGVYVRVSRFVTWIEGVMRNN
UniProt Q9GP15: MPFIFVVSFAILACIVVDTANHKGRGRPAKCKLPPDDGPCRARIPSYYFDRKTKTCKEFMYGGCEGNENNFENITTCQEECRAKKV

Tests used:
[1] = target: plasmin (UniProt P00747); test: SPR, heading of the result section
[2] = target: plasmin (UniProt P00747); test: SPR (BIAcore 3000), Ir-CPI immobilized on CM5 chip (1500 RU), factor at 100 nM as analyte
[3] = target: plasmin (UniProt P00747); test: SPR (BIAcore 3000), Ir-CPI immobilized on a CM5 chip at 1500 RU, analyte 100 nM at 70 µl/min in HBS buffer, blank flow cell subtracted

Measured: binding

Ir-CPI (Ixodes ricinus Contact Phase Inhibitor), recombinant (from UniProt Q9GP15 20-86)
binds: all assays above
